Measured values: PubChem BioAssay AID2417 (National Center for Advancing Translational Sciences (NCATS), 2010)
Out of some 140,000 compounds screened, about 4,300 (3.1%) were called active. The inconclusive results got no clear call from the source; some entries with a clear call stand among them for comparison.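 Rule for the calls: active = readout at or below -70, meaning at least 70% loss of cells showing the perinucleolar compartment, a nuclear body marking cancer cells; inconclusive = readout between -30 and a set limit; inactive = the rest.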

Test: High Content Assay for Compounds that inhibit the Assembly of the Perinucleolar Compartment;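 note: plate controls were DMSO wells for no effect and camptothecin positive control wells for full effect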
Settings: PC3M PTB-GFP, PNC prevalence imaging, 16 h; at 10 µM; hits give low values
In short: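 Read-out is percentage of cells bearing a perinucleolar compartment, from automated 20x imaging of fixed, Hoechst-stained PC3M PTB-GFP cells. Cells were seeded 4 h, then exposed 16 h to compound (23 nl of library stock) in duplicate plates.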

Row | Structure (SMILES) | activity change (PNC), negative = inhibition
1 | COc1ccccc1N1CCN(C(=O)c2cc3n(n2)C(C(F)(F)F)CC(c2ccco2)N3)CC1 (stereo not given) | inconclusive: -42.7%
2 | COc1ccc(N2C(=O)CC(n3cnc4ccccc43)C2=O)cc1 (stereo not given) | inactive: 20.2%
3 | COc1ccc(-n2c(=S)[nH]c3cc(C(=O)NCc4ccco4)ccc3c2=O)c(OC)c1 | inconclusive: -49.8%
4 | Cn1c(=O)c2c(n(Cc3ccccc3)c1=O)NC(=O)C2CC(=O)N1CCc2ccccc2C1 (stereo not given) | inconclusive: -36.8%
5 | COC(=O)[C@@]1(Cc2ccc(OC)cc2)[C@H]2c3cc(C(=O)N4CCCC4)n(CCSCCO)c3C[C@H]2CN1C(=O)c1ccccc1 | inconclusive: -61.7%
6 | O=C(NCc1ccccn1)C1CCCN(S(=O)(=O)c2cccc3nsnc23)C1 (stereo not given) | inactive: 9.44%
7 | CCSC1=C(C#N)C(c2ccc(OC)c(OC)c2)CC(=O)N1 (stereo not given) | inconclusive: -49.2%
8 | Cc1sc(NC(=O)c2sc3nc4c(C)cccc4cc3c2N)c(C#N)c1C | inconclusive: -33.2%
9 | N#CCCN(C(=O)CSc1ccc2c(c1)OCCO2)c1ccccc1 | inconclusive: -55%
10 | Cc1cccc(NC(=O)CN2C(=O)COc3ccc(Cl)cc32)c1 | inconclusive: -46.9%
11 | COc1cccc(COc2cc3ccccc3nc2C)c1 | inactive: -4.9%
12 | CC(C)Cn1c(Br)nc2c1c(=O)n(CCC#N)c(=O)n2C | active: -123%
13 | C/C(=N\OC(=O)NC(C)C)c1sc(-c2ccccc2)nc1C | inconclusive: -38.5%
14 | Cc1cc(C)n2nc(C(=O)OCC(=O)Nc3ccc4c(c3)OCO4)nc2n1 | active: -94%
15 | Cc1ccc(C)c(S(=O)(=O)N2CC(=O)Nc3ccccc32)c1 | active: -86.7%
16 | Cc1ccccc1Cn1c(=O)n(CCC(=O)NCc2ccc3c(c2)OCO3)c(=O)c2ccccc21 | inactive: 14.6%
17 | CCOC(=O)CC(C)(C)/C(C)=N/Nc1ccc([N+](=O)[O-])cc1[N+](=O)[O-] | inconclusive: -56%
18 | CCCCCCCCCCCCOC1OC(CO)C(O)C(O)C1NC(C)=O (stereo not given) | inactive: 50.9%
19 | Fc1ccc(C(c2ccc(F)cc2)N2CCN(C/C=C/c3ccccc3)CC2)cc1 | inactive: -2.5%
20 | O=C(c1ccc(-c2ccccc2)cc1)c1ccccc1C(=O)N1CCOCC1 | inactive: 18.8%
21 | COc1ccc(NC(=O)NCCN2CCc3ccccc3C2)cc1 | inconclusive: -53.6%
22 | CC(C)(C)n1ncc2c(=O)n(CC(=O)NCCc3ccccc3)cnc21 | inactive: -11.1%
23 | CN1CCN(C(=O)CSc2ccc(C(F)(F)F)cc2[N+](=O)[O-])CC1 | inconclusive: -51.4%

Row | Structure (SMILES) | activity change (PNC), negative = inhibition
24 | COc1ccc(CCN2C(=O)NC(NC(=O)C(C)(C)C)(C(F)(F)F)C2=O)cc1OC (stereo not given) | inconclusive: -47.3%
25 | CCOC(=O)c1cc2cc(F)ccc2nc1C | inconclusive: -30.4%
26 | COc1ccc(CCC(C)NC2C3CC4CC(C3)CC2C4)cc1 (stereo not given) | active: -108%
27 | COc1ccc(NC(=O)C2CC(=O)n3cnnc3S2)cc1 (stereo not given) | inconclusive: -31.4%
28 | CCOC(=O)c1ccc(NC(=O)CCNC(=O)c2ccc([N+](=O)[O-])cc2)cc1 | inconclusive: -30.3%
29 | COc1ccc(C2c3sc(=O)[nH]c3SC3C(=O)N(c4ccccc4)C(=O)C32)cc1 (stereo not given) | inconclusive: -51.2%
30 | CCOC(=O)C(=CN(CCc1ccccc1)CC(=O)OC)C(=O)OCC | inactive: 62.7%
31 | CCOC(=O)COc1cc(=O)n(CC)c2ccccc12 | inconclusive: -56%
32 | COc1ccc(C(C)=O)cc1COc1ccc(-n2cnnn2)cc1 | inactive: -1.21%
33 | O=C(Cn1cnc2c(nnn2Cc2ccccc2)c1=O)c1ccc(Cl)cc1 | inactive: 51.9%
34 | CN1CCOCCOCCN(C)C(=O)N2CCOCCOCCN(CCOCC2)C1=O | inconclusive: -38.2%
35 | Cc1cccc(C=Nc2ccc3c4c(cccc24)CC3)c1O | inconclusive: -31%
36 | CCCCCn1c(=O)c(C(=O)c2ccccc2)nc2ccccc21 | inactive: 67.2%
37 | O=C(Nc1cc(S(=O)(=O)N2CCOCC2)ccc1Cl)C(=O)c1c(-c2ccccc2)cc2ccccn12 | inactive: 18.4%
38 | COc1ccc(OC)c(N(CC(=O)Nc2cccnc2)S(=O)(=O)c2ccc(OC)c(OC)c2)c1 | active: -109%
39 | COc1cc2nc(=S)n3[nH]c(CCn4nc(C)cc4C)nc3c2cc1OC | inactive: -27.1%
40 | Cc1ccccc1Nc1nnc(SCC(=O)NCc2ccco2)s1 | inconclusive: -43.1%
41 | CC(=O)NC1C(=O)Nc2c(C)cc(C)cc21 (stereo not given) | inconclusive: -35.9%
42 | CC(C)CC(=O)NC(=S)Nc1cccc(NC(=O)c2ccccc2)c1 | inconclusive: -34.4%
43 | COCCn1c(=S)[nH]c2cc(C(=O)NCCCN3CCOCC3)ccc2c1=O | inactive: 8.03%
44 | Cc1cc(S(=O)(=O)NCC(C)C)ccc1OCC(=O)NCC1CCCO1 (stereo not given) | inconclusive: -50%
45 | O=C(Cn1cnc2c(cnn2-c2ccc(Cl)cc2)c1=O)NCC1CCCO1 (stereo not given) | inconclusive: -55.2%
46 | CCN=C(Nc1ccc2c(c1)OCO2)SC1CC(=O)N(c2ccccc2F)C1=O (stereo not given) | inactive: -16.6%

Row | Structure (SMILES) | activity change (PNC), negative = inhibition
47 | CCOC(=O)Cc1nnc(NC(=O)COc2ccc(OC)cc2)s1 | inactive: -4.24%
48 | CC(C)C(=O)Nc1cccc(NC(=S)NC(=O)c2ccc(Cl)cc2)c1 | inconclusive: -72.2%
49 | O=C1C=CC(=O)N1c1ccc(OC(F)F)cc1 | inactive: -8.53%
50 | O=C(NN=C1c2ccccc2-c2ccccc21)c1cccc(Br)c1 | inactive: -3.11%
51 | O=C(Nc1ccncc1)C1COc2ccccc2O1 (stereo not given) | inconclusive: -42.7%
52 | OCCOCCn1c2ccccc2c2ccccc21 | active: -139%
53 | CCCCNC(=S)N(C)/N=C/c1c(F)cccc1F | inactive: 42.3%
54 | O=C(NCC1CCCO1)C1CC(=O)N(c2ccc(F)c(Cl)c2)C1 (stereo not given) | inconclusive: -61.5%
55 | O=C(OCc1ccccc1)c1ccc2c(c1)-c1ccccc1C2=O | inconclusive: -34.8%
56 | C=CCn1cc(/C=N\NC(=O)c2cc3c(ccc4ccccc43)o2)c2ccccc21 | inconclusive: -41%
57 | Cc1nnc(SCC(=O)Nc2ccc(N3CCOCC3)cc2)o1 | inconclusive: -37.4%
58 | CCOc1ccc(S(=O)(=O)N2CCc3ccccc3C2)cc1 | inconclusive: -38.3%
59 | CCCc1cc(C(=O)Nc2sc(C)c(CC)c2C#N)no1 | inactive: 8.51%
60 | CCOC(=O)c1c(C)[nH]c(C)c1C(=O)CN1C(=O)NC2(CCC(C)CC2)C1=O (stereo not given) | inconclusive: -40.7%
61 | CN1CCN(c2nc3c(c(=O)[nH]c(=O)n3C)n2CCOc2ccccc2)CC1 | inactive: 36.7%
62 | CCN1C(=O)c2cccc3c(S(=O)(=O)NCc4ccccn4)ccc1c23 | inconclusive: -50.1%
63 | c1cc2c(cnc3cscc32)s1 | inconclusive: -60.4%
64 | COc1ccccc1-c1nc2n(n1)C(c1cccs1)C(C(=O)Nc1cccnc1)=C(C)N2 (stereo not given) | inconclusive: -71%
65 | CC1CC(C)CN(C(=O)CSc2nc(Cc3cccs3)nc3ccccc23)C1 (stereo not given) | inconclusive: -54.1%
66 | Cc1ccc(S(=O)(=O)NCCCOC(=O)Nc2ccncc2)cc1 | inconclusive: -32.5%
67 | Cc1ccc(S(=O)(=O)Nc2c3ccccc3nc(=O)n2-c2ccccc2)cc1 | inactive: 3.03%
68 | O=C(c1ccc(Br)o1)N1CCN(c2ccccc2F)CC1 | inconclusive: -48.3%
69 | CC(C)CCNC(=O)c1ccc2c(c1)ncn2C1CCCCC1 | inconclusive: -35.6%

Row | Structure (SMILES) | activity change (PNC), negative = inhibition
70 | COc1ccc(C(=O)NCCc2nnc(SCC(=O)Nc3ccc(Br)cc3)n2C)cc1 | inconclusive: -39%
71 | Cc1ccccc1N(C)S(=O)(=O)c1ccc2[nH]cc(C(=O)NCC3CCCO3)c(=O)c2c1 (stereo not given) | active: -84.4%
72 | Cc1ccc(C(=O)N/C(=C/c2cccs2)C(=O)N2CCCCCC2)cc1 | inconclusive: -38.4%
73 | Cc1cc(C)nc(SC(C)C(=O)N/N=C/c2cccs2)n1 (stereo not given) | inconclusive: -41.1%
74 | O=C1CS/C(=N/N=C/c2ccccc2OS(=O)(=O)c2ccccc2)N1 | inconclusive: -61.6%
75 | O=C(Nc1nncs1)C1COc2ccccc2O1 (stereo not given) | inactive: 13.5%
76 | O=C(COC(=O)/C=C/c1cccc(Br)c1)NCCC1=CCCCC1 | inactive: 48.8%
77 | CCc1nnc(NC(=O)c2cccc(C(=O)Nc3nnc(CC)s3)n2)s1 | inconclusive: -51.9%
78 | O=C1CN=C(Nc2cccc(C(F)(F)F)c2)N1C1CCCC1 | inconclusive: -72.2%
79 | CCN1CCC(=NNC(=O)c2ccco2)CC1 | inactive: -24.7%
80 | Cc1nnc(SCC(=O)Nc2cc(C(C)(C)C)nn2-c2ccccc2)s1 | inconclusive: -68.1%
81 | CC1(C)CC2CC(C)(CN2C(=O)CN2C(=O)c3ccccc3C2=O)C1 (stereo not given) | inconclusive: -65%
82 | CCOC(=O)Nc1ccc2c(c1)nc(CN1CCN(C(C)=O)CC1)n2C | inconclusive: -57.5%
83 | CC(=O)C1=C(O)C(=O)N(CO)C1c1ccccc1F (stereo not given) | inconclusive: -48.6%
84 | O=C(Nc1nnc(SCC(=O)N2CCCCC2)s1)C1CCCCC1 | inactive: -26.9%
85 | O=C1CC(c2cccc(Cl)c2)Cc2nc(N3CCN(c4ccccc4)CC3)ncc21 (stereo not given) | inconclusive: -78.5%
86 | CCN1CCCC1CNC(=O)c1c(O)c2c([nH]c1=O)CCCC2 (stereo not given) | inconclusive: -52.7%
87 | CCC(Sc1ccc2nnc(-c3ccc(OC)c(OC)c3)n2n1)C(=O)O (stereo not given) | inactive: 36.5%
88 | Cn1c(=O)[nH]c(=O)c2c1nc(N1CCCCCC1)n2CCCSc1nc2ccccc2o1 | inconclusive: -37.1%
89 | CCOC(=O)/C=C1\SCC(=O)N1CC(=O)NC(C)c1ccccc1 (stereo not given) | inconclusive: -50.6%
90 | Cc1ccc(N2C(=O)C3C(C2=O)C(C(=O)c2ccc(Cl)cc2)N2CCCC32)cc1 (stereo not given) | inconclusive: -52.9%
